Changes are numbered by the printed parent chain. No constants are given. Whether binding was seen depends on the method and setting. Some binding calls cover weakened binding; strength is not graded here.

By UniProt entry, the sequences of proteins in these tests, tags left out. Where a name states a change or a piece, a line headed by the entry shows the natural chain unless it says otherwise. Chains listed by the source or under a name are the forms on record and can include a tag or linker.
UniProt Q9NZ32: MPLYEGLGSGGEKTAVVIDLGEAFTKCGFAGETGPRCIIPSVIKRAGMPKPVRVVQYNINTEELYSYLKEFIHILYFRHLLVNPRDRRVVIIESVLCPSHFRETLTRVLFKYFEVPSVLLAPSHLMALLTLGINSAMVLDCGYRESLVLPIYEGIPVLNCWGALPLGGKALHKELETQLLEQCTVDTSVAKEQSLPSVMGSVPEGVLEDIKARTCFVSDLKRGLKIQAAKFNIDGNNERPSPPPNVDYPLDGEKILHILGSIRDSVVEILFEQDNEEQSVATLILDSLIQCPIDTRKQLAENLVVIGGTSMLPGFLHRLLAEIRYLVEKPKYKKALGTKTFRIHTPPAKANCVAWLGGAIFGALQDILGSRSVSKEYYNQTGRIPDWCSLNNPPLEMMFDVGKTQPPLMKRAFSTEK
human Arf6 (12-175_Q67L) (P62330, form named): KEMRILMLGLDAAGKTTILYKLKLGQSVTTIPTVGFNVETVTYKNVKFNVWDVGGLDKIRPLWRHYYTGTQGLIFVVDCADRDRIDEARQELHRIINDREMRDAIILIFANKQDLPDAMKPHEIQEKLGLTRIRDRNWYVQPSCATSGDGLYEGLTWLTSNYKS

What all share (assay): pull-down; pull-downs with mouse JIP3 186-505 constructs, Arf6 and the recombinant pointed end complex (Fig. S3E); purified recombinant proteins; which protein was held on the resin is not told in the text shown; both purified
The target of assay [1] is T1, mouse JIP3 186-505_L383A/E386A (mouse) (UniProt Q9ESN9).
T1 sequence: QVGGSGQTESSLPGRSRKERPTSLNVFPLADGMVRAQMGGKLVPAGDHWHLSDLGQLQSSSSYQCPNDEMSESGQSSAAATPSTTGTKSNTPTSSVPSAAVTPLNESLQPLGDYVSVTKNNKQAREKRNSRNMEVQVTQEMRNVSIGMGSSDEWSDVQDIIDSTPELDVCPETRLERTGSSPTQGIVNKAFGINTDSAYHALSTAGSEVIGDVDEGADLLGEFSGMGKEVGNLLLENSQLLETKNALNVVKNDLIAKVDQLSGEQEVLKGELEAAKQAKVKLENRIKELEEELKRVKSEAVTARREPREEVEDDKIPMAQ

In assay [2] the target is T2, mouse JIP3^185-505 (JIP3 residues 186-505) (mouse) (UniProt Q9ESN9).
T2 sequence: T1 sequence with A198L, A201E

For assay [3], the target named is T3, mouse JIP3 186-505_L439P (mouse) (UniProt Q9ESN9).
T3 sequence: T1 sequence with A198L, A201E, L254P

As for “dynactin pointed end complex (Arp11, p62, p27 and p25 with C-terminal 6xHis) (from UniProt Q9NZ32 1-417; Q9UJW0 1-460; O00399 1-190; Q9BTE1 1-182)”, the binding result in assay [1] is “no binding”; in assay [2] it was “binds”; in assay [3], “binds”.

“human Arf6 (12-175_Q67L) (from UniProt P62330 12-175) (domain or fragment)”: the binding entry in assay [3] was “no binding”.

The values above are taken from publication PMC7615804.
